Measured values taken from US9284543B2, “Neutral active soluble truncated PH20 polypeptides and uses thereof” (Halozyme, Inc., priority 2008, dated 2016).

B1: SPAM1-PPME: C-terminally truncated human PH20, precursor 474 aa (SEQ ID NO:26), mature 439 aa (SEQ ID NO:78) (protein, listed as Homo sapiens)
chain 1: MGVLKFKHIFFRSFVKSSGVSQIVFTFLLIPCCLTLNFRAPPVIPNVPFLWAWNAPSEFCLGKFDEPLDMSLFSFIGSPRINATGQGVTIFYVDRLGYYPYIDSITGVTVNGGIPQKISLQDHLDKAKKDITFYMPVDNLGMAVIDWEEWRPTWARNWKPKDVYKNRSIELVQQQNVQLSLTEATEKAKQEFEKAGKDFLVETIKLGKLLRPNHLWGYYLFPDCYNHHYKKPGYNGSCFNVEIKRNDDLSWLWNESTALYPSIYLNTQQSPVAATLYVRNRVREAIRVSKIPDAKSPLPVFAYTRIVFTDQVLKFLSQDELVYTFGETVALGASGIVIWGTLSIMRSMKSCLLLDNYMETILNPYIINVTLAAKMCSQVLCQEQGVCIRKNWNSSDYLHLNPDNFAIQLEKGGKFTVRGKPTLEDLEQFSEKFYCSCYSTLSCKEKADVKDTDAVDVCIADGVCIDAFLKPPME
chain 2: LNFRAPPVIPNVPFLWAWNAPSEFCLGKFDEPLDMSLFSFIGSPRINATGQGVTIFYVDRLGYYPYIDSITGVTVNGGIPQKISLQDHLDKAKKDITFYMPVDNLGMAVIDWEEWRPTWARNWKPKDVYKNRSIELVQQQNVQLSLTEATEKAKQEFEKAGKDFLVETIKLGKLLRPNHLWGYYLFPDCYNHHYKKPGYNGSCFNVEIKRNDDLSWLWNESTALYPSIYLNTQQSPVAATLYVRNRVREAIRVSKIPDAKSPLPVFAYTRIVFTDQVLKFLSQDELVYTFGETVALGASGIVIWGTLSIMRSMKSCLLLDNYMETILNPYIINVTLAAKMCSQVLCQEQGVCIRKNWNSSDYLHLNPDNFAIQLEKGGKFTVRGKPTLEDLEQFSEKFYCSCYSTLSCKEKADVKDTDAVDVCIADGVCIDAFLKPPME
modifications: HuPH20 precursor 1-474; Mature HuPH20 36-474
B2: SPAM1-VASL: full length human PH20, precursor 509 aa (SEQ ID NO:1), mature 474 aa (SEQ ID NO:108) (protein, listed as Homo sapiens)
chain: MGVLKFKHIFFRSFVKSSGVSQIVFTFLLIPCCLTLNFRAPPVIPNVPFLWAWNAPSEFCLGKFDEPLDMSLFSFIGSPRINATGQGVTIFYVDRLGYYPYIDSITGVTVNGGIPQKISLQDHLDKAKKDITFYMPVDNLGMAVIDWEEWRPTWARNWKPKDVYKNRSIELVQQQNVQLSLTEATEKAKQEFEKAGKDFLVETIKLGKLLRPNHLWGYYLFPDCYNHHYKKPGYNGSCFNVEIKRNDDLSWLWNESTALYPSIYLNTQQSPVAATLYVRNRVREAIRVSKIPDAKSPLPVFAYTRIVFTDQVLKFLSQDELVYTFGETVALGASGIVIWGTLSIMRSMKSCLLLDNYMETILNPYIINVTLAAKMCSQVLCQEQGVCIRKNWNSSDYLHLNPDNFAIQLEKGGKFTVRGKPTLEDLEQFSEKFYCSCYSTLSCKEKADVKDTDAVDVCIADGVCIDAFLKPPMETEEPQIFYNASPSTLSATMFIVSILFLIISSVASL
modifications: Human PH20 cDNA encoding amino acids 1-509
B3: SPAM1-PMET: C-terminally truncated human PH20, precursor 475 aa (SEQ ID NO:25), mature 440 aa (SEQ ID NO:77) (protein, listed as Homo sapiens)
chain 1: MGVLKFKHIFFRSFVKSSGVSQIVFTFLLIPCCLTLNFRAPPVIPNVPFLWAWNAPSEFCLGKFDEPLDMSLFSFIGSPRINATGQGVTIFYVDRLGYYPYIDSITGVTVNGGIPQKISLQDHLDKAKKDITFYMPVDNLGMAVIDWEEWRPTWARNWKPKDVYKNRSIELVQQQNVQLSLTEATEKAKQEFEKAGKDFLVETIKLGKLLRPNHLWGYYLFPDCYNHHYKKPGYNGSCFNVEIKRNDDLSWLWNESTALYPSIYLNTQQSPVAATLYVRNRVREAIRVSKIPDAKSPLPVFAYTRIVFTDQVLKFLSQDELVYTFGETVALGASGIVIWGTLSIMRSMKSCLLLDNYMETILNPYIINVTLAAKMCSQVLCQEQGVCIRKNWNSSDYLHLNPDNFAIQLEKGGKFTVRGKPTLEDLEQFSEKFYCSCYSTLSCKEKADVKDTDAVDVCIADGVCIDAFLKPPMET
chain 2: LNFRAPPVIPNVPFLWAWNAPSEFCLGKFDEPLDMSLFSFIGSPRINATGQGVTIFYVDRLGYYPYIDSITGVTVNGGIPQKISLQDHLDKAKKDITFYMPVDNLGMAVIDWEEWRPTWARNWKPKDVYKNRSIELVQQQNVQLSLTEATEKAKQEFEKAGKDFLVETIKLGKLLRPNHLWGYYLFPDCYNHHYKKPGYNGSCFNVEIKRNDDLSWLWNESTALYPSIYLNTQQSPVAATLYVRNRVREAIRVSKIPDAKSPLPVFAYTRIVFTDQVLKFLSQDELVYTFGETVALGASGIVIWGTLSIMRSMKSCLLLDNYMETILNPYIINVTLAAKMCSQVLCQEQGVCIRKNWNSSDYLHLNPDNFAIQLEKGGKFTVRGKPTLEDLEQFSEKFYCSCYSTLSCKEKADVKDTDAVDVCIADGVCIDAFLKPPMET
modifications: HuPH20 precursor 1-475; Mature HuPH20 36-475
B4: SPAM1-ETEE: C-terminally truncated human PH20, precursor 477 aa (SEQ ID NO:23), mature 442 aa (SEQ ID NO:75) (protein, listed as Homo sapiens)
chain 1: MGVLKFKHIFFRSFVKSSGVSQIVFTFLLIPCCLTLNFRAPPVIPNVPFLWAWNAPSEFCLGKFDEPLDMSLFSFIGSPRINATGQGVTIFYVDRLGYYPYIDSITGVTVNGGIPQKISLQDHLDKAKKDITFYMPVDNLGMAVIDWEEWRPTWARNWKPKDVYKNRSIELVQQQNVQLSLTEATEKAKQEFEKAGKDFLVETIKLGKLLRPNHLWGYYLFPDCYNHHYKKPGYNGSCFNVEIKRNDDLSWLWNESTALYPSIYLNTQQSPVAATLYVRNRVREAIRVSKIPDAKSPLPVFAYTRIVFTDQVLKFLSQDELVYTFGETVALGASGIVIWGTLSIMRSMKSCLLLDNYMETILNPYIINVTLAAKMCSQVLCQEQGVCIRKNWNSSDYLHLNPDNFAIQLEKGGKFTVRGKPTLEDLEQFSEKFYCSCYSTLSCKEKADVKDTDAVDVCIADGVCIDAFLKPPMETEE
chain 2: LNFRAPPVIPNVPFLWAWNAPSEFCLGKFDEPLDMSLFSFIGSPRINATGQGVTIFYVDRLGYYPYIDSITGVTVNGGIPQKISLQDHLDKAKKDITFYMPVDNLGMAVIDWEEWRPTWARNWKPKDVYKNRSIELVQQQNVQLSLTEATEKAKQEFEKAGKDFLVETIKLGKLLRPNHLWGYYLFPDCYNHHYKKPGYNGSCFNVEIKRNDDLSWLWNESTALYPSIYLNTQQSPVAATLYVRNRVREAIRVSKIPDAKSPLPVFAYTRIVFTDQVLKFLSQDELVYTFGETVALGASGIVIWGTLSIMRSMKSCLLLDNYMETILNPYIINVTLAAKMCSQVLCQEQGVCIRKNWNSSDYLHLNPDNFAIQLEKGGKFTVRGKPTLEDLEQFSEKFYCSCYSTLSCKEKADVKDTDAVDVCIADGVCIDAFLKPPMETEE
modifications: HuPH20 precursor 1-477; Mature HuPH20 36-477
B5: SPAM1-TEEP: C-terminally truncated human PH20, precursor 478 aa (SEQ ID NO:22), mature 443 aa (SEQ ID NO:74) (protein, listed as Homo sapiens)
chain 1: MGVLKFKHIFFRSFVKSSGVSQIVFTFLLIPCCLTLNFRAPPVIPNVPFLWAWNAPSEFCLGKFDEPLDMSLFSFIGSPRINATGQGVTIFYVDRLGYYPYIDSITGVTVNGGIPQKISLQDHLDKAKKDITFYMPVDNLGMAVIDWEEWRPTWARNWKPKDVYKNRSIELVQQQNVQLSLTEATEKAKQEFEKAGKDFLVETIKLGKLLRPNHLWGYYLFPDCYNHHYKKPGYNGSCFNVEIKRNDDLSWLWNESTALYPSIYLNTQQSPVAATLYVRNRVREAIRVSKIPDAKSPLPVFAYTRIVFTDQVLKFLSQDELVYTFGETVALGASGIVIWGTLSIMRSMKSCLLLDNYMETILNPYIINVTLAAKMCSQVLCQEQGVCIRKNWNSSDYLHLNPDNFAIQLEKGGKFTVRGKPTLEDLEQFSEKFYCSCYSTLSCKEKADVKDTDAVDVCIADGVCIDAFLKPPMETEEP
chain 2: LNFRAPPVIPNVPFLWAWNAPSEFCLGKFDEPLDMSLFSFIGSPRINATGQGVTIFYVDRLGYYPYIDSITGVTVNGGIPQKISLQDHLDKAKKDITFYMPVDNLGMAVIDWEEWRPTWARNWKPKDVYKNRSIELVQQQNVQLSLTEATEKAKQEFEKAGKDFLVETIKLGKLLRPNHLWGYYLFPDCYNHHYKKPGYNGSCFNVEIKRNDDLSWLWNESTALYPSIYLNTQQSPVAATLYVRNRVREAIRVSKIPDAKSPLPVFAYTRIVFTDQVLKFLSQDELVYTFGETVALGASGIVIWGTLSIMRSMKSCLLLDNYMETILNPYIINVTLAAKMCSQVLCQEQGVCIRKNWNSSDYLHLNPDNFAIQLEKGGKFTVRGKPTLEDLEQFSEKFYCSCYSTLSCKEKADVKDTDAVDVCIADGVCIDAFLKPPMETEEP
modifications: HuPH20 precursor 1-478; Mature HuPH20 36-478
B6: SPAM1-METE: C-terminally truncated human PH20, precursor 476 aa (SEQ ID NO:24), mature 441 aa (SEQ ID NO:76) (protein, listed as Homo sapiens)
chain 1: MGVLKFKHIFFRSFVKSSGVSQIVFTFLLIPCCLTLNFRAPPVIPNVPFLWAWNAPSEFCLGKFDEPLDMSLFSFIGSPRINATGQGVTIFYVDRLGYYPYIDSITGVTVNGGIPQKISLQDHLDKAKKDITFYMPVDNLGMAVIDWEEWRPTWARNWKPKDVYKNRSIELVQQQNVQLSLTEATEKAKQEFEKAGKDFLVETIKLGKLLRPNHLWGYYLFPDCYNHHYKKPGYNGSCFNVEIKRNDDLSWLWNESTALYPSIYLNTQQSPVAATLYVRNRVREAIRVSKIPDAKSPLPVFAYTRIVFTDQVLKFLSQDELVYTFGETVALGASGIVIWGTLSIMRSMKSCLLLDNYMETILNPYIINVTLAAKMCSQVLCQEQGVCIRKNWNSSDYLHLNPDNFAIQLEKGGKFTVRGKPTLEDLEQFSEKFYCSCYSTLSCKEKADVKDTDAVDVCIADGVCIDAFLKPPMETE
chain 2: LNFRAPPVIPNVPFLWAWNAPSEFCLGKFDEPLDMSLFSFIGSPRINATGQGVTIFYVDRLGYYPYIDSITGVTVNGGIPQKISLQDHLDKAKKDITFYMPVDNLGMAVIDWEEWRPTWARNWKPKDVYKNRSIELVQQQNVQLSLTEATEKAKQEFEKAGKDFLVETIKLGKLLRPNHLWGYYLFPDCYNHHYKKPGYNGSCFNVEIKRNDDLSWLWNESTALYPSIYLNTQQSPVAATLYVRNRVREAIRVSKIPDAKSPLPVFAYTRIVFTDQVLKFLSQDELVYTFGETVALGASGIVIWGTLSIMRSMKSCLLLDNYMETILNPYIINVTLAAKMCSQVLCQEQGVCIRKNWNSSDYLHLNPDNFAIQLEKGGKFTVRGKPTLEDLEQFSEKFYCSCYSTLSCKEKADVKDTDAVDVCIADGVCIDAFLKPPMETE
modifications: HuPH20 precursor 1-476; Mature HuPH20 36-476

Tested on: CHO-S cells
Test: Western blot analysis of PH20 expression in media and cells after transient expression
Assay type: cell-based, Chinese Hamster
Settings: band at approximately 66 kDa
Method in brief: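 CHO-S cells were transiently transfected with mutant PH20-HZ24 plasmids using GeneJuice and expressed for 48-72 h at 37 °C, 5% CO2. Media and cells were harvested separately, with PI-PLC treatment used to release GPI-anchored protein. Non-reduced samples were blotted with rabbit anti-PH20 (0.5 μg/mL), and a band near 66 kDa was scored as PH20.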

Protein Expression, YES:
B1
B2
B3
B4
B5
B6
